These are yes or no findings as the source states them, for the method shown. Some binding calls cover weakened binding; strength is not graded here.
Experiments:
[1] = biological target: Ca2+-free mutant variant of soluble nucleobindin 1 (mtNUCB1) (human) (UniProt Q02818); test: gel analysis; data not shown; no conditions told; both purified
Aβ42 synthetic peptide [2] = biological target: Aβ42 synthetic peptide (UniProt P05067); test: double immunogold electron microscopy; 10 μM Aβ42 + 10 μM mtNUCB1 incubated at 37 °C for 24 h, or SEC-purified mtNUCB1-Aβ42 protofibrils; stained with mouse anti-Aβ 6E10 (6-nm gold) and rabbit anti-NUCB1 (12-nm gold); both purified
Aβ42 synthetic peptide [3] = biological target: Aβ42 synthetic peptide (UniProt P05067); test: immunogold electron microscopy; data not shown; sample with a mtNUCB1:Aβ42 ratio of 1:4, Aβ42 fibrils; both purified
Aβ42 synthetic peptide [4] = biological target: Aβ42 synthetic peptide (UniProt P05067); test: SEC + ELISA; mtNUCB1 and Aβ42 co-incubated at 37 °C for 24 h; Superdex200 26/60 in 20 mM sodium phosphate pH 8.0, 150 mM NaCl; main peak collected and probed by indirect ELISA for mtNUCB1 and Aβ42; both purified
[5] = biological target: human islet amyloid polypeptide (hIAPP) (human) (UniProt P10997); test: SEC; mtNUCB1 co-incubated with the amyloid protein at 37 °C (hIAPP 3 h stirred; α-synuclein and V30M 24 h shaken); Superdex200 26/60, main peak collected and imaged by AFM; both purified

Amino acid sequences for entries named in this document (tags omitted). Residues count along the entry.
UniProt P05067, residues 672-713: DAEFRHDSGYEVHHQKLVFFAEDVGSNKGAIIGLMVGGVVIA
UniProt P10997, residues 34-70: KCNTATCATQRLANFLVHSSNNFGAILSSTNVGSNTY

Measured: binding

B1: Ca2+-free mutant variant of soluble nucleobindin 1 (mtNUCB1) (protein, UniProt Q02818 31-461)
chain: RGAPNKEETPATESPDTGLYYHRYLQEVIDVLETDGHFREKLQAANAEDIKSGKLSRELDFVSHHVRTKLDELKRQEVSRLRMLLKAKMDAEQDPNVQVDHLNLLKQFEHLDPQNQHTFEARDLELLIQTATRDLAQYDAAHHEEFKRYEMLKEHERRRYLESLGEEQRKEAERKLEEQQRRHREHPKVNVPGSQAQLKEVWEELDGLDPNRFNPKTFFILHKINSDGVLDEQALEALFTKELEKVYDPKNEEDDMREMEEERLRMREHVMKNVKTNQDRLVTLEAFLASTQRKEFGDTGEGWETVEMHPAYTEEELRRFEEELAAREAELNAKAQRLSQETEALGRSQGRLEAQKRELQQAVLHMEQRKQQQQQQQGHKAPAAHPEGQLKFHPDTDDVPVPAPAGDQKEVDTSEKKLLERLPEVEVPQHL
binds: [1] | Aβ42 synthetic peptide [2] | Aβ42 synthetic peptide [3] | Aβ42 synthetic peptide [4] | [5]
